# Out of some 340,000 compounds screened, about 6,200 (1.8%) were called active. Inconclusive means that the source gave no clear call. Such entries were picked first, then a sample of the others. Calls follow the shape of the dose curve; as a rule, active = well fitted activation curve with a large enough effect; inconclusive = small, poorly fitted or top-dose-only effect; inactive = no such curve, though single readings can be large or run the other way. Potencies beside an inconclusive call are fits to weak or partial responses and may not hold up.
# Test: A quantitative high throughput screen for small molecules that induce DNA re-replication in SW480 colon adenocarcinoma cells. Also: nearly all actives have a fitted effect of over 55% in size. As to re-replication activation: % of control where 0% means no effect.
# Conditions: Hoechst DNA content imaging, 48 h; re-replication activation: at 46.1 µM (top of the series) unless noted
# Excerpt: H Molecular Libraries Probe Production Network [MLPCN] NIH Chemical Genomics Center [NCGC] MLPCN Grant: Fast Track K99 CA136555 Assay Provider: Melvin DePamphilis, NICHD, NIH Assay Overview Eukaryotic cells normally restrict genome duplication to once per cell division. When this process is aberrant, DNA re-replication occurs when cells reinitiate DNA replication before the first round of replication is complete. DNA re-replication induces the DNA damage response, arrests cell proliferation, and triggers apoptosis. The cell cycle components cyclin A, Cdt-1, Cdc6 and geminin are critical regulators of this process and their misregulation results in DNA re-replication in normal and cancer cells. To identify compounds that induce re-replication in normal cells, an image-based assay was used to measure DNA content of nuclei, as detected by the fluorescent DNA binding dye, Hoechst. Cell nuclei were imaged by a fluorescence scanning plate imager and compounds that induce DNA re-replication were identified by the increase of nuclei with elevated fluorescence intensity
# For screening, 250 cells in 5 uL/well were dispensed into black clear 1536-well plates (Aurora) using a solenoid-based dispenser. Following transfer of 23 nL compound or DMSO vehicle by a pin tool, the plates were incubated 48 hr at 37 C and 5% CO2. After addition of 1 uL/well Hoescht stain, the plates were incubated 40 min at 37 C, 5% CO2 and total intensity of fluorescent objects (nuclei) were enumerated by an Acumen Explorer Ex3 (TTP LabTech) fluorescence scanning plate imager (405 nm excitation, 500-530 nm emission). Keywords: NIH Roadmap, MLPCN, MLI, MLSMR, qHTS, NCGC, DNA replication, cancer
# Potency is read from the fitted curve at half-maximal effect.
SMILES,Potency,re-replication activation
O=C1CCC[C@@H]2C[C@@]3(C[C@@H]4CCN1[C@H]24)Nc1cc(Cl)ccc1NC3=NCc1ccccc1,"inconclusive: 0.92 µM [activator, full curve, poor fit]",
Cc1ccc(NC(=O)C2C3CCCC2C3c2ccccc2)cc1C (centres undefined),"inconclusive: 23.1 µM [activator, partial curve, poor fit]",
COc1ccc(-c2cc(C(F)(F)F)nc(S(=O)(=O)CCCC(=O)Nc3cc(C)on3)n2)cc1OC,"inconclusive: 6.51 µM [activator, single point]",
O=C(O)CCN1C(=O)C2C3C=CC(C3)C2C1=O (centres undefined),inactive,
CCC(C)(C)NC(=O)Cn1c(-c2ccc(C)cc2)noc1=O,"inconclusive: 0.82 µM [activator, full curve, poor fit]",
O=C1/C(=C\c2cccnc2)Sc2ccccc21,inactive,
CN1CCN(c2ccc(NC(=O)c3ccc4ccccc4c3)cc2)CC1,"inconclusive: 29.1 µM [activator, single point]",
COCCOn1c(SCCOC)nc2ccccc2c1=O,"inconclusive: 6.51 µM [activator, single point]",
O=c1cc(N2CCCCC2)c(-c2ccccc2)nn1Cc1ccc(Cl)cc1,"inconclusive: 29.1 µM [activator, partial curve, poor fit]",
CCc1nn(C(C)C(=O)N2CCN(c3ccc(OC)cc3)CC2)c(=O)c2cc3occc3n12 (centres undefined),,inconclusive: 3.76% [activator]
COc1cccc(C(=O)Nc2cc(S(=O)(=O)N3CCOCC3)ccc2N2CCOCC2)c1,inactive,
CNC(=S)N1N=C(c2ccc(C)cc2)CC1c1ccc(OC)cc1 (centres undefined),,inactive: -6.11% [at 9.22 µM]
O=C(Cn1cc(/C=C\[N+](=O)[O-])c2ccccc21)Nc1ccccc1,"inconclusive: 29.1 µM [activator, single point]",
O=C(CC1CCC1)NC(c1ccccc1)c1ccccc1,"inconclusive: 1.16 µM [activator, single point]",
Cc1ccc(OCc2ccc(C(=O)NN)o2)c([N+](=O)[O-])c1,"inconclusive: 2.91 µM [activator, single point]",
COc1cc2c(cc1OC)C(c1cc3cc4c(cc3[nH]c1=O)OCO4)N(C(=O)C(C)C)CC2 (centres undefined),"inconclusive: 29.1 µM [activator, single point]",
Cc1ccc(NC(=S)NNC(=S)Nc2ccc(C)cc2C)cc1,inactive,
COc1ccc(-c2c(N)n[nH]c2C)cc1OC,inactive,
CCCCn1c2ccc(C)cc2c2nnc(SCCN3CCCCC3)nc21,"inconclusive: 18.4 µM [activator, single point]",
Cc1cc(=O)n(Cc2ccc(OC(C)C)cc2)c(=S)[nH]1,"inconclusive: 29.1 µM [activator, single point]",
CCOC(=O)c1c(-c2ccc(C)o2)csc1NC(=O)CN(C)CC(=O)Nc1ccc(C)cc1,"inconclusive: 18.4 µM [activator, partial curve, poor fit]",
COc1ccc(OC)c(NC(=O)NCCCCc2ccccc2)c1,"inconclusive: 29.1 µM [activator, single point]",

# By substructure: the entries above containing an aryl thioether with sulfur outside any ring
SMILES,Potency,re-replication activation
COCCOn1c(SCCOC)nc2ccccc2c1=O,"inconclusive: 6.51 µM [activator, single point]",
CCCCn1c2ccc(C)cc2c2nnc(SCCN3CCCCC3)nc21,"inconclusive: 18.4 µM [activator, single point]",

# More records follow:

SMILES,Potency,re-replication activation
CCOC(=O)C1=C(C(=O)OCC)N(CC)CCC1=O,"inconclusive: 29.1 µM [activator, partial curve, poor fit]",
Cc1cc(C)n(CC(=O)c2cccc([N+](=O)[O-])c2)n1,"inconclusive: 0.0052 µM [activator, partial curve, poor fit]",
CC(=O)Nc1ccc(NC(=O)CSc2ncc(C(=O)Nc3ccccc3)c(=O)n2C)cc1,inactive,
CCOc1ccccc1N=NC1C(=O)N(C(N)=S)N=C1C (centres undefined),"inconclusive: 1.46 µM [activator, partial curve, poor fit]",
COc1ccc(/C=C/C(=O)c2ccccc2)cc1COc1ccccc1F,active: 14.6 µM,
NNc1nc2ccc(F)cc2s1,inactive,
Cc1ccc(C(=O)NCc2ccc3c(c2)OCO3)o1,"inconclusive: 0.013 µM [activator, full curve, poor fit]",
C=CCN1C(c2ccc(Br)cc2)=CS/C1=C(/C#N)c1nnc(N2CCOCC2)n1-c1ccccc1,"inconclusive: 23.1 µM [activator, single point]",
Cc1cc2c(cc(C(=O)OCC(=O)NC3CCCCC3)n2C)o1,"inconclusive: 23.1 µM [activator, single point]",
CCOc1ccc(C(C(=O)NC(C)(C)C)N(CCOC)C(=O)CCC(=O)Nc2nccs2)cc1 (centres undefined),inactive,
Clc1ccccc1/C=N/NC1=Nc2cccc3cccc1c23,"inconclusive: 35.5 µM [activator, single point]",
CCn1c2ccccc2c2cc(CNCc3ccc(OC)cc3OC)ccc21,"inconclusive: 16.4 µM [activator, partial curve, poor fit]",
Cc1cc(C)c(NC(=O)/C=C\C(=O)O)c([N+](=O)[O-])c1,active: 0.164 µM,
CC1CC(C)CN(C(=O)COC(=O)c2ccc3c(c2)OCCO3)C1 (centres undefined),inactive,
Cc1ccc(C)n1-c1ccc(C(=O)N/N=C/c2ccncc2)cc1,"inconclusive: 18.4 µM [activator, single point]",
Cc1ccn2c(c1)nc(=O)c1cc(S(=O)(=O)N3CCC(C)CC3)ccc12,"inconclusive: 29.1 µM [activator, partial curve, poor fit]",
COc1ccc2nc(NCCCNC(=O)c3cc(OC)c(OC)c(OC)c3)c(C#N)cc2c1,"inconclusive: 23.1 µM [activator, partial curve, poor fit]",
N#C/C(=C(/O)COC(=O)COc1cccc(Br)c1)c1nc2ccccc2[nH]1,inactive,
O=C(NCC1COc2ccccc2O1)c1ccccc1 (centres undefined),inactive,
Cc1onc(-c2ccccc2Cl)c1C(=O)Nc1ccc2c(c1)OCO2,"inconclusive: 18.4 µM [activator, partial curve, poor fit]",
O=C(N/N=C/C(Br)=C/c1ccccc1)c1cnccn1,active: 3.26 µM,
CCc1ccccc1NC(=O)Cn1nnc(C(=O)NCc2cccc(OC)c2)c1N,"inconclusive: 18.4 µM [activator, single point]",
